Results as given in US7939546B2, “Quinoline derivatives for modulating DNA methylation” (SuperGen, Inc., priority 2007, dated 2011).
Structures can show the parent of a compound that is named as a salt. Some entries share one result that the patent states for a list of compounds.

The chains behind the UniProt entries cited, without tags or fusion partners. Where a name states a change or a piece, a line headed by the entry shows the natural chain unless it says otherwise.
UniProt P26358: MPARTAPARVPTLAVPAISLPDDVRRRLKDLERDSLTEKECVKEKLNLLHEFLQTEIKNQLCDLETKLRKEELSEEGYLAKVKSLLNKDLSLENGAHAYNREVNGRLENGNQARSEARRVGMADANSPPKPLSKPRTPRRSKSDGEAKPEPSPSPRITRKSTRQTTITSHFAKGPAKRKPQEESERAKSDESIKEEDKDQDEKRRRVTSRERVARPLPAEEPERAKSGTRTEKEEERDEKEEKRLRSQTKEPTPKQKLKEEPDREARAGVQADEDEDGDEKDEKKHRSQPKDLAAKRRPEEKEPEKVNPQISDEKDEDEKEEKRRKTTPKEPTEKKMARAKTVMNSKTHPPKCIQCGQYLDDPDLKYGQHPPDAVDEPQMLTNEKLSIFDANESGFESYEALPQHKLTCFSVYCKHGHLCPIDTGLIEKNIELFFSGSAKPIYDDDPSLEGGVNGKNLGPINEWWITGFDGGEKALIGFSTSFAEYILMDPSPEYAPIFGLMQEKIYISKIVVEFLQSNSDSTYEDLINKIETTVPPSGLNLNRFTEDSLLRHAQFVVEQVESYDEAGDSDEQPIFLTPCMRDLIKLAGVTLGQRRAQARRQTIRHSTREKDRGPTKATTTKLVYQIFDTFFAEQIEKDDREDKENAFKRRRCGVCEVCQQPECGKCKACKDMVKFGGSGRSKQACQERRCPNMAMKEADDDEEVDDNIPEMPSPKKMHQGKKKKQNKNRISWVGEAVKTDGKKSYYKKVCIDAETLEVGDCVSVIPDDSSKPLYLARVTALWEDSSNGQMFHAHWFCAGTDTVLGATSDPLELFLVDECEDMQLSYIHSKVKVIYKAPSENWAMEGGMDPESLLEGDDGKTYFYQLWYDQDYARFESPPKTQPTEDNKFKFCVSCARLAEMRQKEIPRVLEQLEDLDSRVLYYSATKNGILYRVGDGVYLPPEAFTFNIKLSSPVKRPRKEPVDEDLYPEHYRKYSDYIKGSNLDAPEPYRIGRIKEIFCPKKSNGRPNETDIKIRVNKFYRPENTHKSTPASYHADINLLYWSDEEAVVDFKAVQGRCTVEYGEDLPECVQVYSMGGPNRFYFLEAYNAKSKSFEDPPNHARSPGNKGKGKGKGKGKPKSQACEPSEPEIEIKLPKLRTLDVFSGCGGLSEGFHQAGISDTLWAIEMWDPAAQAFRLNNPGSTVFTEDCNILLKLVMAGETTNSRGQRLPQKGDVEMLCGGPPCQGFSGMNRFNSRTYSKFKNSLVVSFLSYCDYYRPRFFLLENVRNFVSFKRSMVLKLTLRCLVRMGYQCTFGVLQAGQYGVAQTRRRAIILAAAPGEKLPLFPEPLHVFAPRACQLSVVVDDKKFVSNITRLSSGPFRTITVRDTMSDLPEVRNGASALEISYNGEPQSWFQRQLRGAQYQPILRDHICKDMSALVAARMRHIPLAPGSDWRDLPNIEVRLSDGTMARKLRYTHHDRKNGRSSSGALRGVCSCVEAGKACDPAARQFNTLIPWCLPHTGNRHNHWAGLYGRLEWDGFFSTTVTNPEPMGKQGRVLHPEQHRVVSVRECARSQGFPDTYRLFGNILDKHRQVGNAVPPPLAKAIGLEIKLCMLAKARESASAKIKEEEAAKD

Assays:
DNMT1 = DNMT1 (Homo sapiens, UniProt P26358); experiment: Selective depletion of DNMT1 by Western blot in treated HCT116 cells; assay type: cell-based; parameters: Protein extracts (equivalent to 100 μg) were isolated from HCT116 cells; endogenous in cells; host or cells: HCT116; settings: 10 μM
Description: Biol. 2005, 11, 4727-41.]. For DNMT1, commercially available antibodies from Santa Cruz or New England Biolabs were used.

[1] = test system: CMV-EE210 cell line containing the epigenetically silenced GFP transgene; experiment: Cell-based GFP assay for demethylating activity (reactivation of silenced GFP transgene)
Description: The demethylating activity of non-bis-quaternary 4-anilinoquinolines were tested in a cell-based GFP (green fluorescent protein) assay. This assay has a GFP gene regulated by the CMV promoter and is sensitive to the methylation of CpG sites within the promoter. A decrease in methylation resulting from exposure to a methylation inhibitor leads to GFP expression and is readily scored. Specifically, the CMV-EE210 cell line containing the epigenetically silenced GFP transgene was used to assay for reactivation of GFP expression by flow cytometry. CMV-EE210 was made by transfecting NIH 3T3 cells with the pTR-UF/UF1/UF2 plasmid (Zolotuhin et al., 1996), which is comprised of pBS(+) (Stratagene, Inc.) containing a cytomegalovirus (CMV) promoter driving a humanized GFP gene adapted for expression in mammalian cells. After transfection, high-level GFP expressing cells were initially selected by FACS analysis and sorting using a MoFlo cytometer (Cytomation, Inc.). […] To screen for reactivation of CMV-EE210, decitabine (at […]) or a test compound (at a concentration of 30-50 μM) was added to complete medium (phenol red free DMEM (Gibco, Life Technologies) supplemented with 10% fetal bovine serum (Hyclone)). […] Wells were scored g1 positive if 10% of viable cells express GFP, g2 positive if 30% of viable cells express GFP and g3 if greater than 75% of the viable cells express GFP. […]

SMILES: Cc1cc(Nc2cccc(C(=O)Nc3ccc(Nc4ccnc5ccccc45)cc3)c2)nc(N)n1 [Cpd. FF1, 3-[(2-amino-6-methyl-4-pyrimidinyl)amino]-N-[4-(4-quinolinylamino)phenyl]benzamide dihydrochloride]
- DNMT1 degradation (DNMT1): greater than 94%

SMILES: Cc1cc(Nc2ccc(NC(=O)c3ccc(Nc4ccnc5ccc(N(C)C)cc45)cc3)cc2)nc(N)n1.Cl [Cpd. P, N-[4-(2-amino-6-methylpyrimidin-4-ylamino)phenyl]-4-(6-(dimethylamino)quinolin-4-ylamino)benzamide hydrochloride]
- reactivated transcription of the GFP gene, level [1]: greater than 75%

SMILES: Cl.Cl.O=C(Nc1ccc(Nc2ccncc2)cc1)c1ccc(Nc2ccnc3ccccc23)cc1 [Cpd. EEE2, n-[4-(pyridin-4-ylamino)phenyl]-4-(quinolin-4-ylamino)benzamide dihydrochloride]
- DNMT1 degradation (DNMT1): greater than 94%
